In US12345644B2, “System and method for assessing cellular metabolic activity” (Trustees of Tufts College, priority 2016, dated 2025):
For at least one compound, name, drawing or mass did not settle the structure.

What was measured:
C2C12 myoblasts = assay: TPEF imaging of endogenous NADH/FAD under β oxidation induced by fatty acid supplementation; assay type: cell-based, mouse; details: differentiated C2C12 cells, fatty acid 200 μM, versus vehicle-treated cells
C2C12 cells = assay: Fluorescence imaging with MitoTracker Green FM staining under fatty acid supplements; assay type: cell-based, mouse; details: fatty acid 200 μM, FIG. 11

| Structure (SMILES) | NADH bound fraction (phasor analysis) (C2C12 myoblasts) | mitochondrial clustering (β from PSD) (C2C12 myoblasts) | optical redox ratio FAD/(NADH+FAD) (C2C12 myoblasts) | mitochondrial function and architecture (MitoTracker Green FM images) (C2C12 cells) |
| --- | --- | --- | --- | --- |
| CCCCCCCC/C=C\CCCCCCCC(=O)O [Oleate, oleate] | significantly decreased levels | no changes | decrease | preserve mitochondrial function and architecture |
| CCCCCCCCCCCCCCCC(=O)O [Palmitate, palmitate] | even lower levels | increased | decrease | mitochondrial dysfunction and fragmentation |
